# According to publication PMC7332293:
# By UniProt entry, the sequences of proteins in these tests, tags left out.
# UniProt Q86TM6: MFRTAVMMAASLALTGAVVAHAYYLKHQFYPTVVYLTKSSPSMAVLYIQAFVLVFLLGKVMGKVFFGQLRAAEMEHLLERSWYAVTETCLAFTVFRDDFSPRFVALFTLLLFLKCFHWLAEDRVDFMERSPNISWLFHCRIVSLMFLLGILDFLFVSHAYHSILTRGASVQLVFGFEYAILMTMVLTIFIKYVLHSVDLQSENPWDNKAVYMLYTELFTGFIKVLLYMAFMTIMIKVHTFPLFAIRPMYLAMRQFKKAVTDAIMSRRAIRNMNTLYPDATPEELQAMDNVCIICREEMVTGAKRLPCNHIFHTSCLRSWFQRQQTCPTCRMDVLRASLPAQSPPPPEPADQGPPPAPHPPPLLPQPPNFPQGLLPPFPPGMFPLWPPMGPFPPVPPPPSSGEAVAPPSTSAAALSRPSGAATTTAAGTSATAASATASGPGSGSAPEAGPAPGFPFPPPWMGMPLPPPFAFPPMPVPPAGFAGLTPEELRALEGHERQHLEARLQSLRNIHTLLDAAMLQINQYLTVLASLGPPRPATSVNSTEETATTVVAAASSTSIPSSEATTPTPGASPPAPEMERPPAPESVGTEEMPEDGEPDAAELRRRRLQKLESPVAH
# UniProt Q9UKV5: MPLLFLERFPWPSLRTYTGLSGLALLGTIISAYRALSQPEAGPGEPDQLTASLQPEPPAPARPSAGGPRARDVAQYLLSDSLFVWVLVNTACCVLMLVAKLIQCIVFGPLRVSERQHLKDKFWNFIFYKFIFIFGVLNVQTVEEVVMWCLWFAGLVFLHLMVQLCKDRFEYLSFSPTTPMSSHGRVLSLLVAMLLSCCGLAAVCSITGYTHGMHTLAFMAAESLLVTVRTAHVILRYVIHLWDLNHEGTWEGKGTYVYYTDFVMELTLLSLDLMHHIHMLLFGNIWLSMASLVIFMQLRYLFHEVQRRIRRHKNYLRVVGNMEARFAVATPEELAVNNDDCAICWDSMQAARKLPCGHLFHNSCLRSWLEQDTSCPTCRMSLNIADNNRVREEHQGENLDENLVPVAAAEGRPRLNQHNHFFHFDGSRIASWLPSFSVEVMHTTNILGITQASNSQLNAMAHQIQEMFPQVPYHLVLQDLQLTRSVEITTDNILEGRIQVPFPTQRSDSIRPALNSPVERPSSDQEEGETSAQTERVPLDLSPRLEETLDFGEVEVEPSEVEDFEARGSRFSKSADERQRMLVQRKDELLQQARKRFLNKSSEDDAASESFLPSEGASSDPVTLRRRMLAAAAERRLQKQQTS
# T1: FH-RNF185 (human) (UniProt Q96GF1)
# T1 sequence: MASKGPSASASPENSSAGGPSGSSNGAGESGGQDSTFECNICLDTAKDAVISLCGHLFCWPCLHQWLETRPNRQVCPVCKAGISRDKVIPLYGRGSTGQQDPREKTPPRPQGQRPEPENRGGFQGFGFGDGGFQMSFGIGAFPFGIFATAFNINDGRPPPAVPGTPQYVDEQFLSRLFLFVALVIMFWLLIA
# T2: FLAG-HA-tagged RNF170 (human) (UniProt Q96K19)
# T2 sequence: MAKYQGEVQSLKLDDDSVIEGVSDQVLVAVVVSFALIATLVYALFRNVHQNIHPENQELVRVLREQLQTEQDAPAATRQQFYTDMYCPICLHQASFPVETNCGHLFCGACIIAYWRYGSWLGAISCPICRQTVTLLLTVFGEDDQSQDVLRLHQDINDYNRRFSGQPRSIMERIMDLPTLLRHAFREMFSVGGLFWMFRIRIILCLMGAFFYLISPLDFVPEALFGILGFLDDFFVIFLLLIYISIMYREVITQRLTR
# B1: OS-9 (protein, UniProt Q13438 26-667)
# chain: GGVGSLNLEELSEMRYGIEILPLPVMGGQSQSSDVVIVSSKYKQRYECRLPAGAIHFQREREEETPAYQGPGIPELLSPMRDAPCLLKTKDWWTYEFCYGRHIQQYHMEDSEIKGEVLYLGYYQSAFDWDDETAKASKQHRLKRYHSQTYGNGSKCDLNGRPREAEVRFLCDEGAGISGDYIDRVDEPLSCSYVLTIRTPRLCPHPLLRPPPSAAPQAILCHPSLQPEEYMAYVQRQADSKQYGDKIIEELQDLGPQVWSETKSGVAPQKMAGASPTKDDSKDSDFWKMLNEPEDQAPGGEEVPAEEQDPSPEAADSASGAPNDFQNNVQVKVIRSPADLIRFIEELKGGTKKGKPNIGQEQPVDDAAEVPQREPEKERGDPERQREMEEEEDEDEDEDEDEDERQLLGEFEKELEGILLPSDRDRLRSEVKAGMERELENIIQETEKELDPDGLKKESERDRAMLALTSTLNKLIKRLEEKQSPELVKKHKKKRVVPKKPPPSPQPTEEDPEHRVRVRVTKLRLGGPNQDLTVLEMKRENPQLKQIEGLVKELLEREGLTAAGKIEIKIVRPWAEGTEEGARWLTDEDTRNLKEIFFNILVPGAEEAQKERQRQKELESNYRRVWGSPGGEGTGDLDEFDF
# B2: Herp2 (protein, UniProt Q9BSE4 1-406)
# chain: MDQSGMEIPVTLIIKAPNQKYSDQTISCFLNWTVGKLKTHLSNVYPSKPLTKDQRLVYSGRLLPDHLQLKDILRKQDEYHMVHLVCTSRTPPSSPKSSTNRESHEALASSSNSSSDHSGSTTPSSGQETLSLAVGSSSEGLRQRTLPQAQTDQAQSHQFPYVMQGNVDNQFPGQAAPPGFPVYPAFSPLQMLWWQQMYAHQYYMQYQAAVSAQATSNVNPTQPTTSQPLNLAHVPGEEPPPAPNLVAQENRPMNENVQMNAQGGPVLNEEDFNRDWLDWMYTFSRAAILLSIVYFYSSFSRFIMVMGAMLLVYLHQAGWFPFRQEGGHQQAPNNNAEVNNDGQNANNLELEEMERLMDDGLEDESGEDGGEDASAIQRPGLMASAWSFITTFFTSLIPEGPPQVAN
# B3: DHCR7 (enzyme, UniProt Q9UBM7 1-475)
# chain: MAAKSQPNIPKAKSLDGVTNDRTASQGQWGRAWEVDWFSLASVIFLLLFAPFIVYYFIMACDQYSCALTGPVVDIVTGHARLSDIWAKTPPITRKAAQLYTLWVTFQVLLYTSLPDFCHKFLPGYVGGIQEGAVTPAGVVNKYQINGLQAWLLTHLLWFANAHLLSWFSPTIIFDNWIPLLWCANILGYAVSTFAMVKGYFFPTSARDCKFTGNFFYNYMMGIEFNPRIGKWFDFKLFFNGRPGIVAWTLINLSFAAKQRELHSHVTNAMVLVNVLQAIYVIDFFWNETWYLKTIDICHDHFGWYLGWGDCVWLPYLYTLQGLYLVYHPVQLSTPHAVGVLLLGLVGYYIFRVANHQKDLFRRTDGRCLIWGRKPKVIECSYTSADGQRHHSKLLVSGFWGVARHFNYVGDLMGSLAYCLACGGGHLLPYFYIIYMAILLTHRCLRDEHRCASKYGRDWERYTAAVPYRLLPGIF
# B4: SLC39A14/ZIP14 (protein, UniProt Q15043 31-492)
# chain: SSLGAPAISAASFLQDLIHRYGEGDSLTLQQLKALLNHLDVGVGRGNVTQHVQGHRNLSTCFSSGDLFTAHNFSEQSRIGSSELQEFCPTILQQLDSRACTSENQENEENEQTEEGRPSAVEVWGYGLLCVTVISLCSLLGASVVPFMKKTFYKRLLLYFIALAIGTLYSNALFQLIPEAFGFNPLEDYYVSKSAVVFGGFYLFFFTEKILKILLKQKNEHHHGHSHYASESLPSKKDQEEGVMEKLQNGDLDHMIPQHCSSELDGKAPMVDEKVIVGSLSVQDLQASQSACYWLKGVRYSDIGTLAWMITLSDGLHNFIDGLAIGASFTVSVFQGISTSVAILCEEFPHELGDFVILLNAGMSIQQALFFNFLSACCCYLGLAFGILAGSHFSANWIFALAGGMFLYISLADMFPEMNEVCQEDERKGSILIPFIIQNLGLLTGFTIMVVLTMYSGQIQIG
# B5: FAM8A1 (protein, UniProt Q9UBU6 1-413)
# chain: MAEGPEEARGHPPGQDDGGGDHEPVPSLRGPPTTAVPCPRDDPQAEPQAPGRPTAPGLAAAAAADKLEPPRELRKRGEAASGSGAELQEQAGCEAPEAAAPRERPARLSAREYSRQVHEWLWQSYCGYLTWHSGLAAFPAYCSPQPSPQSFPSGGAAVPQAAAPPPPQLGYYNPFYFLSPGAAGPDPRTAAGISTPAPVAGLGPRAPHVQASVRATPVTRVGSAAPSRSPSETGRQAGREYVIPSLAHRFMAEMVDFFILFFIKATIVLSIMHLSGIKDISKFAMHYIIEEIDEDTSMEDLQKMMVVALIYRLLVCFYEIICIWGAGGATPGKFLLGLRVVTCDTSVLIAPSRVLVIPSSNVSITTSTIRALIKNFSIASFFPAFITLLFFQHNRTAYDIVAGTIVVKRNGVR
# B6: Derlin1/DERL1 (protein, UniProt Q9BUN8 1-251)
# chain: MSDIGDWFRSIPAITRYWFAATVAVPLVGKLGLISPAYLFLWPEAFLYRFQIWRPITATFYFPVGPGTGFLYLVNLYFLYQYSTRLETGAFDGRPADYLFMLLFNWICIVITGLAMDMQLLMIPLIMSVLYVWAQLNRDMIVSFWFGTRFKACYLPWVILGFNYIIGGSVINELIGNLVGHLYFFLMFRYPMDLGGRNFLSTPQFLYRWLPSRRGGVSGFGVPPASMRRAADQNGGGGRHNWGQGFRLGDQ
# B7: UBAC2 (protein, UniProt Q8NBM4 36-344)
# chain: HCQKLFVYDLHAVKNDFQIWRLICGRIICLDLKDTFCSSLLIYNFRIFERRYGSRKFASFLLGSWVLSALFDFLLIEAMQYFFGITAASNLPSGFLAPVFALFVPFYCSIPRVQVAQILGPLSITNKTLIYILGLQLFTSGSYIWIVAISGLMSGLCYDSKMFQVHQVLCIPSWMAKFFSWTLEPIFSSSEPTSEARIGMGATLDIQRQQRMELLDRQLMFSQFAQGRRQRQQQGGMINWNRLFPPLRQRQNVNYQGGRQSEPAAPPLEVSEEQVARLMEMGFSRGDALEALRASNNDLNVATNFLLQH
# B8: ERLIN2 (protein, UniProt O94905 1-339)
# chain: MAQLGAVVAVASSFFCASLFSAVHKIEEGHIGVYYRGGALLTSTSGPGFHLMLPFITSYKSVQTTLQTDEVKNVPCGTSGGVMIYFDRIEVVNFLVPNAVYDIVKNYTADYDKALIFNKIHHELNQFCSVHTLQEVYIELFDQIDENLKLALQQDLTSMAPGLVIQAVRVTKPNIPEAIRRNYELMESEKTKLLIAAQKQKVVEKEAETERKKALIEAEKVAQVAEITYGQKVMEKETEKKISEIEDAAFLAREKAKADAECYTAMKIAEANKLKLTPEYLQLMKYKAIASNSKIYFGKDIPNMFMDSAGSVSKQFEGLADKLSFGLEDEPLETATKEN
# B9: RNF170 (endogenous, found as HCIP) (enzyme, UniProt Q96K19 1-258)
# chain: MAKYQGEVQSLKLDDDSVIEGVSDQVLVAVVVSFALIATLVYALFRNVHQNIHPENQELVRVLREQLQTEQDAPAATRQQFYTDMYCPICLHQASFPVETNCGHLFCGACIIAYWRYGSWLGAISCPICRQTVTLLLTVFGEDDQSQDVLRLHQDINDYNRRFSGQPRSIMERIMDLPTLLRHAFREMFSVGGLFWMFRIRIILCLMGAFFYLISPLDFVPEALFGILGFLDDFFVIFLLLIYISIMYREVITQRLTR
# B10: HMGCR (enzyme, UniProt P04035 1-888)
# chain: MLSRLFRMHGLFVASHPWEVIVGTVTLTICMMSMNMFTGNNKICGWNYECPKFEEDVLSSDIIILTITRCIAILYIYFQFQNLRQLGSKYILGIAGLFTIFSSFVFSTVVIHFLDKELTGLNEALPFFLLLIDLSRASTLAKFALSSNSQDEVRENIARGMAILGPTFTLDALVECLVIGVGTMSGVRQLEIMCCFGCMSVLANYFVFMTFFPACVSLVLELSRESREGRPIWQLSHFARVLEEEENKPNPVTQRVKMIMSLGLVLVHAHSRWIADPSPQNSTADTSKVSLGLDENVSKRIEPSVSLWQFYLSKMISMDIEQVITLSLALLLAVKYIFFEQTETESTLSLKNPITSPVVTQKKVPDNCCRREPMLVRNNQKCDSVEEETGINRERKVEVIKPLVAETDTPNRATFVVGNSSLLDTSSVLVTQEPEIELPREPRPNEECLQILGNAEKGAKFLSDAEIIQLVNAKHIPAYKLETLMETHERGVSIRRQLLSKKLSEPSSLQYLPYRDYNYSLVMGACCENVIGYMPIPVGVAGPLCLDEKEFQVPMATTEGCLVASTNRGCRAIGLGGGASSRVLADGMTRGPVVRLPRACDSAEVKAWLETSEGFAVIKEAFDSTSRFARLQKLHTSIAGRNLYIRFQSRSGDAMGMNMISKGTEKALSKLHEYFPEMQILAVSGNYCTDKKPAAINWIEGRGKSVVCEAVIPAKVVREVLKTTTEAMIEVNINKNLVGSAMAGSIGGYNAHAANIVTAIYIACGQDAAQNVGSSNCITLMEASGPTNEDLYISCTMPSIEIGTVGGGTNLLPQQACLQMLGVQGACKDNPGENARQLARIVCGTVMAGELSLMAALAAGHLVKSHMIHNRSKINLQDLQGACTKKTA
# B11: c6orf120 (protein, UniProt Q7Z4R8 31-191)
# chain: DEEEVPEEWVLLHVVQGQIGAGNYSYLRLNHEGKIVLRMRSLKGDADLYVSASSLHPSFDDYELQSATCGPDAVSIPAHFRRPVGIGVYGHPSHLESEFEMKVYYDGTVEQHPFGEAAYPADGADAGQKHAGAPEDASQEEESVLWTILISILKLVLEILF
# Legend:
# Assay in all cases: affinity purification with mass spectrometry; FLAG-HA-tagged E3 induced with DOX in stable Flp-In293 cells; lysates in 1% LMNG (150 mM NaCl, 50 mM Tris-HCl pH 7.4, 5 mM EDTA); anti-FLAG agarose, 2 hr; eluted with SDS; LC-MS/MS; HCIPs by BSCG and SINQ analysis
# Hrd1-FH (human) = Hrd1-FH (human) (UniProt Q86TM6)
# [1] = target: FLAG-HA-tagged gp78/AMFR (human) (UniProt Q9UKV5)
# FH-RNF185 (human) = target: T1, FH-RNF185 (human)
# [2] = target: T2, FLAG-HA-tagged RNF170 (human)
Binder,binding (Hrd1-FH (human)),binding [1],further results
B1,binds,–,–
B2,binds,–,–
B3,binds,–,–
B4,binds,–,–
B5,binds,–,–
B6,–,binds,–
B7,–,binds,–
B8,–,–,binding (FH-RNF185 (human)): binds; binding [2]: binds
B9,–,binds,binding (FH-RNF185 (human)): binds
B10,–,binds,–
B11,–,–,binding (FH-RNF185 (human)): binds; binding [2]: binds

# These are yes or no findings as the source states them, for the method shown. Binding seen in cells or lysates may run through a third protein. These calls come from enrichment with a bait or labelling near it, and not all partners need be listed. For some assays here: Tags and fused reporters may be left off the sequences shown.
